# Some of the results follow.
# How the values were obtained:
# Assay in all cases: glycan array binding signal (z-score within array); higher = stronger binding
# Conditions in all cases: glycan notation: IUPAC condensed, linker removed
# Gal3S(b1-4)Glc = target: Gal3S(b1-4)Glc
# Summary of the method: (§1)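 The Consortium for Functional Glycomics database supplied 3228 glycan arrays, of which those lacking an available protein sequence were dropped. The binding signal, a within-array Z-score, was averaged across arrays of the same protein sequence and across linkers. Negative scores can be read as non-binding.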
# Gal3S(b1-4)Glc6S = target: Gal3S(b1-4)Glc6S
# Summary of the method: as §1
# Gal3S(b1-4)GlcNAc = target: Gal3S(b1-4)GlcNAc
# Summary of the method: as §1
# Gal3S(b1-4)GlcNAc6S = target: Gal3S(b1-4)GlcNAc6S
# Summary of the method: as §1
# [1] = target: Gal3S(b1-4)[Fuc(a1-3)]Glc
# Summary of the method: as §1
# [2] = target: Gal3S(b1-4)[Fuc(a1-3)]Glc6S
# Summary of the method: as §1
# [3] = target: Gal3S(b1-4)[Fuc(a1-3)]GlcNAc
# Summary of the method: as §1
# [4] = target: Gal3S(b1-4)[Fuc(a1-3)]GlcNAc6S
# Summary of the method: as §1
# Gal3S4S(b1-4)GlcNAc = target: Gal3S4S(b1-4)GlcNAc
# Summary of the method: as §1
# Gal3S6S(b1-4)GlcNAc = target: Gal3S6S(b1-4)GlcNAc
# Summary of the method: as §1
# Gal3S6S(b1-4)GlcNAc6S = target: Gal3S6S(b1-4)GlcNAc6S
# Summary of the method: as §1
# Gal4S(b1-4)GlcNAc = target: Gal4S(b1-4)GlcNAc
# Summary of the method: as §1
# Gal4S6S(b1-4)GlcNAc = target: Gal4S6S(b1-4)GlcNAc
# Summary of the method: as §1
# Gal6P(b1-4)GlcNAc = target: Gal6P(b1-4)GlcNAc
# Summary of the method: as §1
# Gal6S(b1-3)GlcNAc = target: Gal6S(b1-3)GlcNAc
# Summary of the method: as §1
# Gal6S(b1-3)GlcNAc6S = target: Gal6S(b1-3)GlcNAc6S
# Summary of the method: as §1
# Gal6S(b1-4)Glc = target: Gal6S(b1-4)Glc
# Summary of the method: as §1
# Gal6S(b1-4)Glc6S = target: Gal6S(b1-4)Glc6S
# Summary of the method: as §1
# Gal6S(b1-4)GlcNAc = target: Gal6S(b1-4)GlcNAc
# Summary of the method: as §1
# Gal6S(b1-4)GlcNAc6S = target: Gal6S(b1-4)GlcNAc6S
# Summary of the method: as §1
# GalNAc(a1-3)Gal = target: GalNAc(a1-3)Gal
# Summary of the method: as §1
# GalNAc(a1-3)GalNAc = target: GalNAc(a1-3)GalNAc
# Summary of the method: as §1
# [5] = target: GalNAc(a1-3)GalNAc(b1-3)Gal(a1-4)Gal(b1-4)Glc
# Summary of the method: as §1
# [6] = target: GalNAc(a1-3)GalNAc(b1-3)Gal(a1-4)Gal(b1-4)GlcNAc
# Summary of the method: as §1
# GalNAc(b1-3)Gal = target: GalNAc(b1-3)Gal
# Summary of the method: as §1
# [7] = target: GalNAc(b1-3)Gal(a1-4)Gal(b1-4)GlcNAc
# Summary of the method: as §1
# [8] = target: GalNAc(b1-3)Gal(a1-4)Gal(b1-4)GlcNAc(b1-3)Gal(b1-4)Glc
# Summary of the method: as §1
# [9] = target: GalNAc(b1-3)Gal(a1-6)Gal(b1-4)Glc
# Summary of the method: as §1
# GalNAc(b1-3)GalNAc = target: GalNAc(b1-3)GalNAc
# Summary of the method: as §1
# GalNAc(b1-3)GlcNAc = target: GalNAc(b1-3)GlcNAc
# Summary of the method: as §1
# GalNAc(b1-4)Gal(b1-4)Glc = target: GalNAc(b1-4)Gal(b1-4)Glc
# Summary of the method: as §1
# GalNAc(b1-4)GlcNAc = target: GalNAc(b1-4)GlcNAc
# Summary of the method: as §1
# [10] = target: GalNAc(b1-4)GlcNAc(b1-2)Man
# Summary of the method: as §1
# [11] = target: GalNAc(b1-4)GlcNAc(b1-2)Man(a1-3)[GalNAc(b1-4)GlcNAc(b1-2)Man(a1-6)]Man(b1-4)GlcNAc(b1-4)GlcNAc
# Summary of the method: as §1
# [12] = target: GalNAc(b1-4)GlcNAc(b1-3)GalNAc(b1-4)GlcNAc
# Summary of the method: as §1
# GalNAc(b1-4)GlcNAc6S = target: GalNAc(b1-4)GlcNAc6S
# Summary of the method: as §1
# GalNAc(b1-6)GalNAc = target: GalNAc(b1-6)GalNAc
# Summary of the method: as §1
# GalNAc3S(b1-4)GlcNAc = target: GalNAc3S(b1-4)GlcNAc
# Summary of the method: as §1
# GalNAc3S(b1-4)GlcNAc3S = target: GalNAc3S(b1-4)GlcNAc3S
# Summary of the method: as §1
# [13] = target: GalNAc3S(b1-4)[Fuc(a1-3)]GlcNAc
# Summary of the method: as §1
# GalNAc4S6S(b1-4)GlcNAc = target: GalNAc4S6S(b1-4)GlcNAc
# Summary of the method: as §1
# GalNAc6S(b1-4)GlcNAc = target: GalNAc6S(b1-4)GlcNAc
# Summary of the method: as §1
# Glc(a1-4)Glc = target: Glc(a1-4)Glc
# Summary of the method: as §1
# [14] = target: Glc(a1-4)Glc(a1-4)Glc(a1-4)Glc
# Summary of the method: as §1
# Glc(a1-6)Glc(a1-6)Glc = target: Glc(a1-6)Glc(a1-6)Glc
# Summary of the method: as §1
# [15] = target: Glc(a1-6)Glc(a1-6)Glc(a1-6)Glc
# Summary of the method: as §1
# Glc(b1-4)Glc = target: Glc(b1-4)Glc
# Summary of the method: as §1
# Glc(b1-6)Glc = target: Glc(b1-6)Glc
# Summary of the method: as §1
# GlcA(b1-3)Gal = target: GlcA(b1-3)Gal
# Summary of the method: as §1
# GlcA(b1-3)GlcNAc = target: GlcA(b1-3)GlcNAc
# Summary of the method: as §1
# GlcA(b1-6)Gal = target: GlcA(b1-6)Gal
# Summary of the method: as §1
# [16] = target: GlcA3S(b1-3)Gal(b1-4)GlcNAc(b1-2)Man
# Summary of the method: as §1
binder,measurement,setting,value
KISKRILTGKK [NK11 (Sus scrofa)],glycan array binding signal (z-score),Gal3S(b1-4)Glc,1.28
same,glycan array binding signal (z-score),Gal3S(b1-4)Glc6S,0.768
same,glycan array binding signal (z-score),Gal3S(b1-4)GlcNAc,-0.361
same,glycan array binding signal (z-score),Gal3S(b1-4)GlcNAc6S,3.4
same,glycan array binding signal (z-score),[1],1.21
same,glycan array binding signal (z-score),[2],1.04
same,glycan array binding signal (z-score),[3],2.52
same,glycan array binding signal (z-score),[4],1.8
same,glycan array binding signal (z-score),Gal3S4S(b1-4)GlcNAc,0.324
same,glycan array binding signal (z-score),Gal3S6S(b1-4)GlcNAc,1.39
same,glycan array binding signal (z-score),Gal3S6S(b1-4)GlcNAc6S,1.05
same,glycan array binding signal (z-score),Gal4S(b1-4)GlcNAc,0.093
same,glycan array binding signal (z-score),Gal4S6S(b1-4)GlcNAc,0.494
same,glycan array binding signal (z-score),Gal6P(b1-4)GlcNAc,-0.08
same,glycan array binding signal (z-score),Gal6S(b1-3)GlcNAc,0.136
same,glycan array binding signal (z-score),Gal6S(b1-3)GlcNAc6S,3.65
same,glycan array binding signal (z-score),Gal6S(b1-4)Glc,0.115
same,glycan array binding signal (z-score),Gal6S(b1-4)Glc6S,0.976
same,glycan array binding signal (z-score),Gal6S(b1-4)GlcNAc,-0.042
same,glycan array binding signal (z-score),Gal6S(b1-4)GlcNAc6S,2.58
same,glycan array binding signal (z-score),GalNAc(a1-3)Gal,-0.634
same,glycan array binding signal (z-score),GalNAc(a1-3)GalNAc,-0.05
same,glycan array binding signal (z-score),[5],-0.15
same,glycan array binding signal (z-score),[6],0.323
same,glycan array binding signal (z-score),GalNAc(b1-3)Gal,-0.435
same,glycan array binding signal (z-score),[7],0.262
same,glycan array binding signal (z-score),[8],0.414
same,glycan array binding signal (z-score),[9],-0.885
same,glycan array binding signal (z-score),GalNAc(b1-3)GalNAc,-0.863
same,glycan array binding signal (z-score),GalNAc(b1-3)GlcNAc,-0.718
same,glycan array binding signal (z-score),GalNAc(b1-4)Gal(b1-4)Glc,-0.229
same,glycan array binding signal (z-score),GalNAc(b1-4)GlcNAc,-0.338
same,glycan array binding signal (z-score),[10],-1.45
same,glycan array binding signal (z-score),[11],-0.461
same,glycan array binding signal (z-score),[12],-0.419
same,glycan array binding signal (z-score),GalNAc(b1-4)GlcNAc6S,2.55
same,glycan array binding signal (z-score),GalNAc(b1-6)GalNAc,-0.974
same,glycan array binding signal (z-score),GalNAc3S(b1-4)GlcNAc,0.468
same,glycan array binding signal (z-score),GalNAc3S(b1-4)GlcNAc3S,1.96
same,glycan array binding signal (z-score),[13],0.203
same,glycan array binding signal (z-score),GalNAc4S6S(b1-4)GlcNAc,1.08
same,glycan array binding signal (z-score),GalNAc6S(b1-4)GlcNAc,0.009
same,glycan array binding signal (z-score),Glc(a1-4)Glc,-0.441
same,glycan array binding signal (z-score),[14],-0.119
same,glycan array binding signal (z-score),Glc(a1-6)Glc(a1-6)Glc,-0.591
same,glycan array binding signal (z-score),[15],-0.034
same,glycan array binding signal (z-score),Glc(b1-4)Glc,-0.842
same,glycan array binding signal (z-score),Glc(b1-6)Glc,-0.905
same,glycan array binding signal (z-score),GlcA(b1-3)Gal,-0.625
same,glycan array binding signal (z-score),GlcA(b1-3)GlcNAc,-0.041
same,glycan array binding signal (z-score),GlcA(b1-6)Gal,-0.877
same,glycan array binding signal (z-score),[16],2.08

# Rewritten as tab-separated lines: entries from further up.
binder	measurement	setting	value
KISKRILTGKK [NK11 (Sus scrofa)]	glycan array binding signal (z-score)	[3]	2.52
same	glycan array binding signal (z-score)	[4]	1.8
same	glycan array binding signal (z-score)	Gal3S4S(b1-4)GlcNAc	0.324
same	glycan array binding signal (z-score)	Gal3S6S(b1-4)GlcNAc	1.39
same	glycan array binding signal (z-score)	Gal3S6S(b1-4)GlcNAc6S	1.05
same	glycan array binding signal (z-score)	Gal4S(b1-4)GlcNAc	0.093
same	glycan array binding signal (z-score)	Gal4S6S(b1-4)GlcNAc	0.494
same	glycan array binding signal (z-score)	Gal6P(b1-4)GlcNAc	-0.08
same	glycan array binding signal (z-score)	Gal6S(b1-3)GlcNAc	0.136
same	glycan array binding signal (z-score)	Gal6S(b1-3)GlcNAc6S	3.65
same	glycan array binding signal (z-score)	Gal6S(b1-4)Glc	0.115

# Reference: the supplement of paper PMC8728848
